PubChem BioAssay AID1508600 (Functional Genomics Laboratory (NCATS/FGL), 2020)
About 3,700 (7%) of roughly 53,000 sequences were called active.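 How the source made its calls: active means gene knockdowns whose robust z-score for IL-1 alpha signal is at least 2 or at most -2, so actives lie on both sides; inactive means the rest.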 This is one part of the list.

test: Components of the Cytosolic LPS Sensing Pathway: Gene Identification via Genome-wide siRNA Screen; conditions: RAW264.7 macrophages, IL-1a HTRF, actives lie on both sides, screened at 100 nM (by protocol), cells primed 5 h with Pam3CSK4 first;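 further: robust z of the log signal after scaling to non-targeting control siRNA wells of the plate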
How it was run: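 RAW264.7 mouse macrophages reverse-transfected with single siRNAs (100 nM final) for 48h, primed with Pam3CSK4 for 5 hours, then transfected with LipidA for 24 hour. Supernatant IL-1a read by HTRF; values normalized to negative-control median, log-transformed robust z-scores.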

Sequence	z-score
GGAAGUAAGAAUCUGGUUUTT against A730036I17Rik	inactive: -0.0529
GGUCCGAUAUCUGAGUCUCTT against Hic1	inactive: 0.471
GGUGUCAACAUUGCAUACUTT against Gatad2b	inactive: 1.62
GCAGUGGUUAUCCAAGUAUTT against Chrm1	inactive: -0.112
GGGAGGAUCAAGGCCUUCUTT against Olfr62	inactive: 0.104
UUUAAGGAUCUCGUGCGAATT against Olfr809	inactive: -0.12
GGCUAAAUUAUUGCGCAAATT against C1qbp	active: 2.34
GGACAAAGACCAGUCAUUCTT against Nkapl	inactive: -0.585
GGGAAAGGAAGAUGAUAUCTT against Wdr64	inactive: 0.127
GGCAUAUGACCAUCAUAAUTT against Porcn	inactive: -0.71
CCCAUUGUAUUCAUCAGAGTT against Foxr2	inactive: 0.35
GGGAGAGGCCUUUUGAAUGTT against Zfp623	inactive: -0.0575
GCCAGAUGCUUACUAAGUGTT against Nop14	inactive: 1.11
GGUUCUUAGGAGUUAACUCTT against Klf16	active: 2.71
AACUUUCUCAUUCUUACUGTT against Olfr961	inactive: -1.22
CCGGAAACGGAUCAUUUCATT against Galnt18	inactive: 1.2
GGGAGUAAUGUUCUAAUCATT against Msh4	inactive: 0.971
GGAACCCAAACUGAAGUAUTT against Vps41	inactive: 0.16
GGGAAUGUAAACAAAGUCATT against Iqgap1	inactive: -1.11
GGAAUGGGCAGUAUGAGUUTT against Ocrl	inactive: -1.73
GAGACUAAGCAGUGGAAGATT against Krtap21-1	inactive: -0.124
CCUGCACAACUGGAAACCUTT against Nectin2	active: -2.16

Sequence	z-score
GCCACUCACCUGUAGUUCUTT against BC049715	inactive: 0.0758
GGACUCCAAGGACAAACUGTT against Wdr45	inactive: -0.903
GCCAGUUCGAUAUAUCUUCTT against Gstz1	inactive: -1.31
GGAACUUCAGUGUCGUCUCTT against Olfr285	inactive: 0.364
CCAAAAUGUAUACCUACUUTT against Car4	inactive: -0.564
GGCAGAUCUUGCUGACAUCTT against Nat8f2	inactive: -1.59
CCUGUUAAUGACACCCACGTT against Slc37a2	inactive: -0.886
GGUCCGGAACAAAUUAGAUTT against Eif2ak1	inactive: 0.76
GGUGUCAGCUUACCAUUCATT against Triap1	inactive: -0.329
GCUUUGUUGUACGACAACATT against Agr2	inactive: 1.43
CGGUGUCACCCAUGUUAUCTT against Actr3b	inactive: -0.158
GGGUGUGUUUUUAUGUGUUTT against Lcp2	active: 2.57
GCCCAUCUACUCACGGUACTT against Mon1b	inactive: -0.21
GGAAAUAGAAGACCAGUUUTT against Srsf3	inactive: -1.43
GGCAGAAGAGUGGUACAAGTT against Dok4	inactive: 1.02
GGUUCAGAAGUUUGUGAUGTT against Vmn1r17	inactive: 1.67
GCGAGCAAGUGAAAACGCATT against Sumf1	inactive: -0.717
GCUGGACCUUCGAAGGUUUTT against Pltp	inactive: 0.509
GGCCAUUGAGUGCUCCUACTT against Dhcr7	inactive: -0.113
GGCUGCUGGUCAGUUAUGATT against Glrb	inactive: -0.603
GGAAUGUGAGCUUAUCAUATT against Tlr1	inactive: -0.965
GGAACUAAAUAUCCCUAUGTT against Polr3gl	inactive: -1.26

A few values from above.
Entry for GGCUAAAUUAUUGCGCAAATT against C1qbp under z-score: active: 2.34
Entry for GGUGUCAGCUUACCAUUCATT against Triap1 under z-score: inactive: -0.329

Exported with bars between the fields: part of the list above
Sequence | z-score
GGUGUCAGCUUACCAUUCATT against Triap1 | inactive: -0.329
GCUUUGUUGUACGACAACATT against Agr2 | inactive: 1.43

Further results follow.

Sequence	z-score
GGAAUAACACCUCUGUCCCTT against Hspa12a	inactive: 0.145
GGUGUUCAAUGCUCACUAUTT against Fezf2	inactive: 0.594
GCUUCAGACGUAAUUUACUTT against Morc1	inactive: 0.751
GGCAUCUGCUUUUCAGAAATT against Ube2h	inactive: 0.566
GGCAUUUUACCAGCGAAGCTT against Klhl5	inactive: 0.107
GGAAGCAACCCAAGGAUAATT against Syt8	inactive: 0.532
GGGUUUCCAAGAAGGAAGCTT against Utp25	inactive: 0.852
GGGACAACACUCUUUUACUTT against Nab2	inactive: 0.696
GCUAAGCUACAUUUCCAAATT against Pycard	inactive: 1.19
GGAAGAGUGUAGGGCUUACTT against Htr1a	inactive: -0.103
GCCUGUACUUCAGAAACUCTT against Akirin1	inactive: -0.337
GGAAUCCUUUCCUAAAUUGTT against Lin9	inactive: 0.745
GGCAUCAAAGACAAUACAATT against Vmn1r15	active: 3.19
GCUAUAUCUAAAGCUAUUCTT against Sgpp1	inactive: -0.782
GGAAGUCUCUCGUAUUAUATT against Washc5	inactive: -0.993
CCUCAUUUCAACCAUUCACTT against Lyzl6	active: -2.36
GGGCCUGAAAAGACCAUCATT against Olfr124	inactive: -0.424
GGGCUAUGGCUCCUUUGUGTT against Rhpn1	inactive: -1.61
GGUCUUUCAUUGAAGCUGATT against Il1b	inactive: -0.00807
CGAUCAAAAAAAUCGUGUGTT against Cfap97	inactive: 0.587
GCAAUCCUAUGAAGUUAAATT against Zfp169	inactive: 0.295
GGAGAUGGGUUUAAGCCCUTT against Scube3	inactive: -0.0385

Sequence	z-score
GCCUGGGUAUGAAGAAAUUTT against Pla2g2f	inactive: -0.35
GGUAUUUCGAAACCUCCGUTT against H2-Q10	active: 2.01
GGAGAUCGACCUGUCUAUGTT against Cep164	inactive: 0.988
GCGAUCACAGACAUCAUUGTT against Rabgef1	inactive: -0.423
GCUGGGUUGCUGAUUUUUGTT against Arl5a	inactive: -0.881
GGCUCAUCAUUGAGAACAUTT against Zmym1	inactive: -1.4
GGAUGAAGAUACAGAGGUATT against Spata32	inactive: -0.931
GGAUGUAGGCAGUAGUAGCTT against 4931428F04Rik	inactive: 0.574
GCGAAGUUACUACAGACGUTT against Slc39a1	inactive: -0.124
GGAAUCGUACUUCCACUAGTT against AI854703	inactive: -0.277
GGGCAUGAAGAGCUACAUCTT against Snx18	inactive: -0.597
CGUGUGGACCAAUGUGGUATT against Fam149a	inactive: 0.793
CCAGAUGGGAUACCUCUACTT against Tmed6	inactive: 0.303
CGGAUGCAAUCUGACCAGATT against Mettl7a2	inactive: 0.000984
CCAAUUCAAUUAGACUAGATT against 9430015G10Rik	inactive: 0.89
GGUUCAGCUCAUAUAUAAUTT against D630029K05Rik	inactive: 0.448
GGUAGACUCUAGCUUCCUCTT against Gpr182	inactive: 0.945
GGGUCUUCUGGAGAUUCAGTT against Dgcr6	inactive: 0.275
GGGAAGUGGAUCGUGUUCUTT against Syt8	inactive: 0.157
GGAGAAUCUGAUAUUGAUCTT against Cdkl2	inactive: 0.0472
GCAUGUGUACCAUUUACCUTT against Prdx1	inactive: 1.87
GGCAUUUAUGUCAAAGGAUTT against Fhl5	inactive: 0.0626

Sequence	z-score
GCUCACUUCAGGUUUACCATT against Pdcd1	inactive: -1.33
GCUAUAGGUUAGAUUCAAATT against Gm5600	inactive: 0.999
GCAGCUAACUCCAAGUCAGTT against Tfam	inactive: -1.42
GCCUGAUUUUUUGUCUCUATT against Slc39a7	inactive: -0.344
GGAGAAGAAAGAAGUUAAATT against Map1b	inactive: 1.19
GGAAAAGGUGGAAAAGUGATT against Ddx18	inactive: -0.511
GGUUACAAAAGAACCAGAUTT against Pik3c2g	inactive: 1.66
GCCGGUUUAUAGAAGAAGATT against D6Wsu163e	inactive: 1.03
GGCACACAGUAACUUGAACTT against Vmn1r51	inactive: 0.458
GGAAUCUAGAAGAAUCAUUTT against Gnao1	inactive: -0.42
CCUGAGUGUGGAGUGUUUCTT against Olfr444	inactive: -0.576
GCCACAAGGUUCGGUAUUCTT against 1700028K03Rik	inactive: -0.281
GGAAAUUCGUGCAUGAAGATT against Sgsm2	inactive: -1.31
GGUCUAUCCUACCUCAAAGTT against Prl8a8	inactive: 1.93
GCUAAGUGCUCGAAUCCGATT against Cnppd1	inactive: -0.326
GGGUUUAUGGGCAUGUCCCTT against Adipor2	inactive: -0.964
GGAAAAACUGGUAUCUUCCTT against Ermp1	inactive: -1.11
GGUUGGCCUGAGUGAAAUGTT against Spata5	inactive: 0.895
